Measurements: the supplement of paper PMC10735217
This is one part of the list. Single values are uncertain here, since repeats match poorly.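 Human kidney-derived cells stably carry a construct in which eight TEAD-binding elements drive luciferase, measured by luminescence in a drug-repurposing library screen. A hit is any compound whose signal exceeds the plate mean by more than five robust Z scores.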

Tested on: HEK293A TEAD-LUC reporter
Experiment: TEAD-luciferase reporter activity (YAP activation), robust Z score vs plate; higher = stronger YAP/TEAD activation
Settings: 24 h

Row | SMILES | TEAD-luciferase reporter activity (compound concentration: 200 nM) | TEAD-luciferase reporter activity (compound concentration: 2 uM) | TEAD-luciferase reporter activity (compound concentration: 10 uM)
1 | Fc1ccc(Cn2c(NC3CCNCC3)nc3ccccc32)cc1 | inactive: -1.47 | inactive: 0.0787 | inactive: 0.992
2 | CO[C@H]1C[C@@H](CO[C@H]2CC[C@H](C(=O)O)CC2)N(C(=O)Cc2cc(Cl)c(NC(=O)c3cn(C)c4ccccc34)cc2Cl)C1 | inactive: -1.33 | inactive: 0.178 | inactive: -0.348
3 | CC[P](CC)(CC)=[Au][S][C@@H]1O[C@H](COC(C)=O)[C@@H](OC(C)=O)[C@H](OC(C)=O)[C@H]1OC(C)=O [Auranofin] | inactive: 0.569 | – | active: 5.93
4 | CC[P](CC)(CC)=[Au][S][C@@H]1O[C@H](COC(C)=O)[C@@H](OC(C)=O)[C@H](OC(C)=O)[C@H]1OC(C)=O | – | inactive: 4.09 | –
5 | COc1cnc(OC)c2c1c(C(=O)C(=O)N1CCN(C(=O)c3ccccc3)CC1)cn2COP(=O)(O)O | inactive: -0.961 | inactive: -0.67 | inactive: -0.835
6 | COc1cc2c(cc1OC)C(C)N(CCc1ccc(N)cc1)CC2 (stereo unspecified) | inactive: 0.275 | inactive: 2.21 | inactive: -0.471
7 | C[n+]1ccccc1C=NO [Pralidoxime chloride] | inactive: 0.759 | inactive: -1.63 | inactive: 0.578
8 | COc1ccc(Cl)c(Nc2ncnc3cc(OCC4CCN(C)CC4)c(OC)cc23)c1 | inactive: 0.487 | inactive: -1.98 | inactive: -1.87
9 | c1ccc2c(c1)cc(-c1nn[nH]n1)c1nnnn12 | inactive: 0.331 | inactive: -0.534 | inactive: -1.46
10 | Nc1ccn(C2CCC(CO)O2)c(=O)n1 (stereo unspecified) [zalcitabine] | inactive: -0.738 | inactive: 0.388 | inactive: 1.31
11 | Cc1cccc(C(OCCN(C)C)c2ccccc2)c1 (stereo unspecified) | inactive: -0.164 | inactive: 3.99 | inactive: 2.68
12 | C=CCNC(=O)SC1=NCCS1 | inactive: -2.39 | inactive: -2.27 | inactive: -0.989
13 | CC(C)(C)n1cc(C(=O)O)c(=O)c2cc(F)c(N3C[C@H]4C[C@@H]3CN4)nc21 | inactive: -1.97 | inactive: -0.688 | inactive: -1.13
14 | CNC(=O)[C@@H](Cc1ccccc1)N(C)C(=O)[C@@H](Cc1ccc2ccccc2c1)N(C)C(=O)/C=C/CC(C)(C)N [Tabimorelin] | inactive: 1.79 | inactive: -0.886 | inactive: -1.13
15 | Cc1ccc2c(Br)cc(Br)c(OC(=O)c3ccc(Cl)cc3)c2n1 | inactive: -0.0349 | inactive: 0.0138 | inactive: 0.0953
16 | COc1ccc(OC)c(-n2c(N)nc3cc(C(F)(F)F)ccc32)c1 | inactive: 0.0968 | inactive: -0.225 | inactive: 0.643
17 | OC(c1ccccc1)C1CCN(CCc2ccccc2)CC1 (stereo unspecified) [Glemanserin] | inactive: -0.574 | inactive: -1.15 | inactive: 0.168
18 | CS(=O)(=O)N[C@@H](CCCCN)C(=O)NC[C@H](CC1(C(=O)N[C@@H](Cc2ccc(O)cc2)C(=O)O)CCCC1)C(=O)O | inactive: -0.0587 | inactive: -0.0331 | inactive: 0.643
19 | CC(C)(Sc1cc(C(C)(C)C)c(O)c(C(C)(C)C)c1)Sc1cc(C(C)(C)C)c(O)c(C(C)(C)C)c1 [Panavir] | inactive: -0.536 | inactive: 3.87 | inactive: -0.609

Row | SMILES | TEAD-luciferase reporter activity (compound concentration: 200 nM) | TEAD-luciferase reporter activity (compound concentration: 2 uM) | TEAD-luciferase reporter activity (compound concentration: 10 uM)
20 | NCCCC(=O)O | inactive: -0.7 | inactive: -0.275 | inactive: -0.0766
21 | COC(=O)C1=C(C)NC(C)=C(C(=O)OCCc2ccc(N3CCN(C(c4ccccc4)c4ccccc4)CC3)cc2)C1c1cccc([N+](=O)[O-])c1 (stereo unspecified) | inactive: -0.543 | inactive: -0.162 | inactive: -0.0128
22 | CCCCCn1c(=O)[nH]c(=O)c2[nH]c(Cl)nc21 | inactive: 2.27 | inactive: -0.605 | inactive: 0.0803
23 | COc1ccc([C@@H]2c3ncccc3[C@H](c3ccc4c(c3)OCO4)[C@H]2C(=O)O)cc1 | inactive: -0.436 | inactive: -0.983 | inactive: -0.0149
24 | CCCCCCCCCCCCCCCCCCCCCCO [docosanol] | – | inactive: -1.73 | –
25 | CCCCCCCCCCCCCCCCCCCCCCO [1-Docosanol] | inactive: -1.57 | – | inactive: 1.13
26 | CC(=O)SC[C@@H](C)C(=O)N1CCC[C@H]1C(=O)N[C@@H](Cc1ccccc1)C(=O)O [alacepril] | inactive: 1.61 | inactive: -0.679 | inactive: 0.516
27 | COc1ccc(-c2nc(C(F)(F)F)sc2-c2ccc(OC)cc2)cc1 [Itazigrel] | inactive: -1.27 | inactive: -0.0239 | inactive: 1.86
28 | O=C([O-])[C@@](O)(CSc1ccccc1)CS(=O)(=O)c1ccc(-c2ccc(Cl)cc2)cc1 | inactive: -0.933 | inactive: 0.441 | inactive: -1.63
29 | O=C(N[C@@H](Cc1ccccc1)C(=O)O)c1cc(-c2ccc(Nc3nc4ccc(F)cc4s3)cc2)no1 | inactive: -0.307 | inactive: -0.689 | inactive: -0.412
30 | COc1cc(N)ccc1-c1nc2c(C)nn(C3CCCCC3)c2c(=O)[nH]1 | inactive: -0.911 | inactive: -0.0646 | inactive: 1.64
31 | O=C1NC(=O)/C(=C/c2ccc3nccc(-c4ccncc4)c3c2)S1 | inactive: -1.42 | inactive: -1.97 | inactive: -1.2
32 | COC(=O)c1ccccc1OC(=O)c1cccs1 | inactive: -1.36 | inactive: -1.51 | inactive: 1.51
33 | N#Cc1ccc(C(O)CN2CC=C(C3=NNC(=O)CC3)CC2)cc1 (stereo unspecified) | inactive: -0.616 | inactive: -0.421 | inactive: 0.626
34 | O=C1Nc2ccc(Cl)cc2[C@@](C#CC2CC2)(C(F)(F)F)N1 | inactive: -1.36 | inactive: -0.979 | inactive: 0.976
35 | C#C[C@]1(O)CC[C@H]2[C@@H]3CCc4cc(OC)ccc4[C@H]3CC[C@@]21C | inactive: 0.0625 | inactive: -0.636 | inactive: -0.968
36 | CCCNC(=O)Nc1ccc(Oc2ncnc3cc(OC)c(OC)cc23)cc1Cl | inactive: -1.32 | inactive: -1.45 | inactive: -1.41
37 | O=C(O)C1CCc2cc(C3CCCCC3)c(Cl)cc21 (stereo unspecified) [clidanac] | inactive: 0.393 | inactive: 0.402 | active: 5.53
38 | CN1CCN(c2nc(C3=C(c4c[nH]c5ccccc45)C(=O)NC3=O)c3ccccc3n2)CC1 [Sotrastaurin] | inactive: 1.07 | inactive: 0.555 | inactive: 0.507

Complete entries as entered above. Order of values: TEAD-luciferase reporter activity (compound concentration: 200 nM)	TEAD-luciferase reporter activity (compound concentration: 2 uM)	TEAD-luciferase reporter activity (compound concentration: 10 uM)
COC(=O)C1=C(C)NC(C)=C(C(=O)OCCc2ccc(N3CCN(C(c4ccccc4)c4ccccc4)CC3)cc2)C1c1cccc([N+](=O)[O-])c1 (stereo unspecified) is listed with inactive: -0.543	inactive: -0.162	inactive: -0.0128
COc1cc(N)ccc1-c1nc2c(C)nn(C3CCCCC3)c2c(=O)[nH]1 is listed with inactive: -0.911	inactive: -0.0646	inactive: 1.64

(next part)

Row | SMILES | TEAD-luciferase reporter activity (compound concentration: 200 nM) | TEAD-luciferase reporter activity (compound concentration: 2 uM) | TEAD-luciferase reporter activity (compound concentration: 10 uM)
39 | Cc1cccc(F)c1C(=O)Nc1cnc(-c2cc3c(cc2Cl)OC(F)(F)O3)cn1 | inactive: -2.17 | – | inactive: -1.26
40 | CC(=O)Nc1c(Br)cc(Br)cc1CN(C)C12CC3CC(CC(C3)C1)C2 | inactive: -2.05 | inactive: -1.15 | inactive: 1.8
41 | CC(Oc1ccc(Oc2cnc3ccc(Cl)cc3n2)cc1)C(=O)O (stereo unspecified) | inactive: -1.07 | inactive: 0.0759 | inactive: -1.3
42 | Nc1nc(S)c2nc[nH]c2n1 [Tioguanine] | inactive: -1.18 | inactive: 4.44 | inactive: -0.00645
43 | CCCc1c(OCCCOc2ccc3c(=O)cc(CCC(=O)O)oc3c2CCC)ccc(C(C)=O)c1O | inactive: 1.78 | inactive: -0.211 | inactive: 0.879
44 | CC1CCc2cc(F)cc3c(=O)c(C(=O)O)cn1c23 (stereo unspecified) | inactive: 0.296 | – | inactive: -0.691
45 | CC1CCc2cc(F)cc3c(=O)c(C(=O)O)cn1c23 (stereo unspecified) [flumequine] | – | inactive: 0.21 | –
46 | c1ccc(C(O[C@@H]2CCCN(CCc3ccc4c(c3)OCO4)C2)c2ccccc2)cc1 [Zamifenacin] | inactive: -1.41 | inactive: 0.478 | inactive: 0.441
47 | O=C(O)COc1ccc(CCNS(=O)(=O)c2ccccc2)s1 [Linotroban] | inactive: 0.267 | inactive: -1.04 | inactive: -0.17
48 | CCCCCCCC(=O)OCC(=O)[C@@]1(O)CC[C@H]2[C@@H]3CCC4=CC(=O)CC[C@]4(C)[C@H]3[C@@H](O)C[C@@]21C | inactive: -1.81 | inactive: 0.244 | inactive: 1.83
49 | Nc1ccn([C@@H]2CO[C@H](CO)O2)c(=O)n1 [Troxacitabine] | inactive: -0.799 | inactive: -1.41 | inactive: 2.88
50 | CCc1c2c(nc3ccc(O)cc13)-c1cc3c(c(=O)n1C2)COC(=O)[C@]3(O)CC | – | inactive: -1.29 | –
51 | CCc1c2c(nc3ccc(O)cc13)-c1cc3c(c(=O)n1C2)COC(=O)[C@]3(O)CC [7-Ethyl-10-hydroxycamptothecin] | inactive: 0.813 | – | inactive: -0.241
52 | CCCc1nn(CC(F)(F)F)c(CO)c1Cc1ccc(-c2ccccc2-c2nnn[nH]2)cc1 | inactive: -0.309 | inactive: -0.837 | inactive: 0.41
53 | COc1ccccc1Oc1c(NS(=O)(=O)c2ccc(C(C)(C)C)cc2)nc(-c2ncccn2)nc1OCCO [Bosentan] | inactive: -0.0354 | – | inactive: 1.98
54 | COc1ccccc1Oc1c(NS(=O)(=O)c2ccc(C(C)(C)C)cc2)nc(-c2ncccn2)nc1OCCO [bosentan once-daily] | – | inactive: -0.975 | –
55 | O=C1c2c(O)c(=O)ccn2N([C@@H]2c3ccccc3SCc3c2ccc(F)c3F)[C@@H]2COCCN12 [Baloxavir] | inactive: 1.22 | – | inactive: 0.624
56 | CCOC(=O)COc1ccc(C(=O)c2ccc(O)c(CN)c2)c(Cl)c1Cl | inactive: -1.67 | inactive: -1.03 | inactive: -1.5

Looked up above:
Value for CC(=O)Nc1c(Br)cc(Br)cc1CN(C)C12CC3CC(CC(C3)C1)C2 under TEAD-luciferase reporter activity (compound concentration: 2 uM): inactive: -1.15
Value for Nc1nc(S)c2nc[nH]c2n1 [Tioguanine] under TEAD-luciferase reporter activity (compound concentration: 2 uM): inactive: 4.44
